In publication PMC4770304:
These are yes or no findings as the source states them, for the method shown. In cells and extracts the contact can be indirect. Some binding calls cover weakened binding; strength is not graded here.

The chains behind the UniProt entries cited, without tags or fusion partners. Where a name states a change or a piece, a line headed by the entry shows the natural chain unless it says otherwise.
UniProt Q27J81: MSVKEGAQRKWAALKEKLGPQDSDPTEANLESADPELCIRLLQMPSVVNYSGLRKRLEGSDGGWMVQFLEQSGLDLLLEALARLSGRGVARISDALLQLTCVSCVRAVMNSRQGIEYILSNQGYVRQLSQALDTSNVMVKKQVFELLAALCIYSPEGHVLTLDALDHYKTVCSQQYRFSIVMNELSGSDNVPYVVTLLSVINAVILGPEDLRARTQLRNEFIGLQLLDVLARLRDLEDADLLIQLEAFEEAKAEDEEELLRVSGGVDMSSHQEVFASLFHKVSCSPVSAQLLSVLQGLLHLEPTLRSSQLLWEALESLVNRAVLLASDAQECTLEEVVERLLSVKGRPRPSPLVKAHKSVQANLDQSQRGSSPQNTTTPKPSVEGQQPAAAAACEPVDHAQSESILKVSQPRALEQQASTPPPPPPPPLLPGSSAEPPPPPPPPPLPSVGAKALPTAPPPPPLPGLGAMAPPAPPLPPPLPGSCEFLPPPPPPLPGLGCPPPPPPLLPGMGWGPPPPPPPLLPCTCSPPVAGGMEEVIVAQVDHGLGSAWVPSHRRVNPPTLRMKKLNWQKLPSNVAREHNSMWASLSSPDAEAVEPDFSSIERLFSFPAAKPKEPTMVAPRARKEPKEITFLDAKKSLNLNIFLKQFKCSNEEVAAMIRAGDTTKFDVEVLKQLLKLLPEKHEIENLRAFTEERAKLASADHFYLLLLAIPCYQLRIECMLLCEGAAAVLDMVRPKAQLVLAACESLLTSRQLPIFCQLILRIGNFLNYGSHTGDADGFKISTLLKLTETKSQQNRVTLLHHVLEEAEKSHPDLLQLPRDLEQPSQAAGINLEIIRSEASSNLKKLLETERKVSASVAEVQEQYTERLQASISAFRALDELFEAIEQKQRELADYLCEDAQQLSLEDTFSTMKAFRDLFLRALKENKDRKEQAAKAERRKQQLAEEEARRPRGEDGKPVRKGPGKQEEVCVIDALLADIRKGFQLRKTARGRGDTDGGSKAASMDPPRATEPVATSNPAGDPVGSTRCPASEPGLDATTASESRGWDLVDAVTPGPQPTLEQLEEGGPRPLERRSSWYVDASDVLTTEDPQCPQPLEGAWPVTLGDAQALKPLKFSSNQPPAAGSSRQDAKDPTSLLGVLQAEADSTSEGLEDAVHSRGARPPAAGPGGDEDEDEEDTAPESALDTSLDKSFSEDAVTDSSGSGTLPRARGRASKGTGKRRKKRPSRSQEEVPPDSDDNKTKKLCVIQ
UniProt P35080: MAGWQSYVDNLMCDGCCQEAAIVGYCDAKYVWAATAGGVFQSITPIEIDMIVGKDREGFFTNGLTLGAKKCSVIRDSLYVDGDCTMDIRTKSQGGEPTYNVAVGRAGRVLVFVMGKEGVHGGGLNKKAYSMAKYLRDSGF

What was measured:
[1] = target: GFP–INF2 (wild type) expressed in human podocytes (UniProt Q27J81); experiment: co-IP; GFP-Trap from differentiated podocytes expressing GFP–INF2; blots probed with F-actin capping protein and profilin 2 antibodies
[2] = target: endogenous INF2 (human (endogenous in podocytes)) (UniProt Q27J81); experiment: co-IP; endogenous proteins: polyclonal INF2 antibody or rabbit Ig on protein A/G agarose, lysates of differentiated podocytes (10 mM Tris pH 7.5, 150 mM NaCl, 0.5 mM EDTA, 2% NP40, 10% glycerol), 1 h at 4°C
GFP–INF2–E184K = GFP–INF2–E184K (UniProt Q27J81); experiment: co-IP; HEK293T transfected with GFP–INF2 (WT or mutant), co-transfected with HACdc42QL or a control plasmid; GFP-Trap agarose, 1 h at 4°C (10 mM Tris pH 7.5, 150 mM NaCl, 0.5 mM EDTA, 2% NP40, 10% glycerol); blots
GFP–INF2–R218Q = GFP–INF2–R218Q (UniProt Q27J81); experiment: as above
GFP–INF2–S186P = GFP–INF2–S186P (UniProt Q27J81); experiment: as above
[3] = target: GFP–INF2–WT expressed in HEK293T cells (UniProt Q27J81); experiment: as above

Measured: binding

profilin 2 (from UniProt P35080 1-140)
binds: [1] | [2] | GFP–INF2–E184K | GFP–INF2–R218Q | GFP–INF2–S186P | [3]
